From doi:10.1101/2024.09.11.24313360
Where two headings read alike, the source gives them in different places. No constants are given. Whether binding was seen depends on the method and setting. Binding seen in cells or lysates may run through a third protein. Some results given as binding are weak or reduced against the parent protein; the word gives no strength.

Key:
Assay in all cases: co-IP
TLR8 (human) [1] = target: T1, TLR8 (human) (UniProt Q9NR97)
T1 sequence: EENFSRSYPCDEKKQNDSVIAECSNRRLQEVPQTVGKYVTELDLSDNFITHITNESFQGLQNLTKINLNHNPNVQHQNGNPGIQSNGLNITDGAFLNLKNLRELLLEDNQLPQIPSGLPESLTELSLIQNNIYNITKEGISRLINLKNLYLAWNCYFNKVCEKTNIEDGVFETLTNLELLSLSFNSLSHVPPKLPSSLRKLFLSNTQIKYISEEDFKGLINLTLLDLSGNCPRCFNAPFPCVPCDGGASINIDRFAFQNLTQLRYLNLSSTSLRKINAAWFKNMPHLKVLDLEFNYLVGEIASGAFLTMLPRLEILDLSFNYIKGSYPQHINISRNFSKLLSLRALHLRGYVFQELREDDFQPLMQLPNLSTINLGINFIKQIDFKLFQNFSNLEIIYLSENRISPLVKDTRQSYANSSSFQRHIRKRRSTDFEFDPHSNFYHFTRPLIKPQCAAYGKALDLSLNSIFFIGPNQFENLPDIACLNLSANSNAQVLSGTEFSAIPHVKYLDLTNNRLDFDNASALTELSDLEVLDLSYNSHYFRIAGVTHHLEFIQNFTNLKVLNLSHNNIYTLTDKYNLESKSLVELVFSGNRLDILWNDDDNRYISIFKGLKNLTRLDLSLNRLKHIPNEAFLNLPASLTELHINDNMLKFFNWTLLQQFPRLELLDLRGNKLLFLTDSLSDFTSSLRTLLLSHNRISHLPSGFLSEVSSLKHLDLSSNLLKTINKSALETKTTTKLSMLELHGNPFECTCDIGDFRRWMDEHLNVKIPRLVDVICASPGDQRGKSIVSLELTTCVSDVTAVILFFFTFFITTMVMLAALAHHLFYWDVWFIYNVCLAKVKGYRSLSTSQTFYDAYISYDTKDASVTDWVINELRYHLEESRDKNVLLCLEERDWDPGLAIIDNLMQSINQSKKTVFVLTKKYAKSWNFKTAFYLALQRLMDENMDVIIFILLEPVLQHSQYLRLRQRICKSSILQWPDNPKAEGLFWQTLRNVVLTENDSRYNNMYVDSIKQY

TLR8 (human) [2] = target: T1, TLR8 (human); remark: listed apart in the source
TLR7 (human) = target: T2, TLR7 (human) (UniProt Q9NYK1)
T2 sequence: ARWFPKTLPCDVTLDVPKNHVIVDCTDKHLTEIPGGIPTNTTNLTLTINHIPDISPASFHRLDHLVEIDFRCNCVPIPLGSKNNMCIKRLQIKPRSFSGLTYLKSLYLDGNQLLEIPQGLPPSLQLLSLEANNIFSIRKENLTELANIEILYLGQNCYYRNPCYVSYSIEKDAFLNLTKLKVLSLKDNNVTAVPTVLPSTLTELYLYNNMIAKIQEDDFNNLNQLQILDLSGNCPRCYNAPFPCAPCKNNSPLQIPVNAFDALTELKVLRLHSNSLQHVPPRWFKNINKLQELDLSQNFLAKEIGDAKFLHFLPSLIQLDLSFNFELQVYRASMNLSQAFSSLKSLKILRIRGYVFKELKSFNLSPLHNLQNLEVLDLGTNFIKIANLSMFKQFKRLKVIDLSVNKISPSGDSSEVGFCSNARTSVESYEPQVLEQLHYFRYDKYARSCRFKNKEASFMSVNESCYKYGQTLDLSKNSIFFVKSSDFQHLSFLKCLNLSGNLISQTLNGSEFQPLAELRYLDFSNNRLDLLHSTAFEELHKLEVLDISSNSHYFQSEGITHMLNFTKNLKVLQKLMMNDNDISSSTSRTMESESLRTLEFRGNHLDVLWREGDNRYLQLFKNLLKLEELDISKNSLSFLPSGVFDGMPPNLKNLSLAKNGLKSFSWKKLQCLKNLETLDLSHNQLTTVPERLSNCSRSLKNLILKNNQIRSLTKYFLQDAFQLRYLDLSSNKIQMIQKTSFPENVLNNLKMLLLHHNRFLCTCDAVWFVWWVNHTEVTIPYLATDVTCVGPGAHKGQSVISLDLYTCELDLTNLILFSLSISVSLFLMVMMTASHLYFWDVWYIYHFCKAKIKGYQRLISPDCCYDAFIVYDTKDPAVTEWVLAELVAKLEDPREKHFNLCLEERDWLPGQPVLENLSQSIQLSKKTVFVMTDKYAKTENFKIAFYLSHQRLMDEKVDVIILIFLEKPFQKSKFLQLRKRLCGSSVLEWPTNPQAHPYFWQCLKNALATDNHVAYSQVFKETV

Measured: binding

B1: wild-type UNC93B1 (protein, UniProt Q9H1C4 1-597)
chain: MEAEPPLYPMAGAAGPQGDEDLLGVPDGPEAPLDELVGAYPNYNEEEEERRYYRRKRLGVLKNVLAASAGGMLTYGVYLGLLQMQLILHYDETYREVKYGNMGLPDIDSKMLMGINVTPIAALLYTPVLIRFFGTKWMMFLAVGIYALFVSTNYWERYYTLVPSAVALGMAIVPLWASMGNYITRMAQKYHEYSHYKEQDGQGMKQRPPRGSHAPYLLVFQAIFYSFFHLSFACAQLPMIYFLNHYLYDLNHTLYNVQSCGTNSHGILSGFNKTVLRTLPRSGNLIVVESVLMAVAFLAMLLVLGLCGAAYRPTEEIDLRSVGWGNIFQLPFKHVRDYRLRHLVPFFIYSGFEVLFACTGIALGYGVCSVGLERLAYLLVAYSLGASAASLLGLLGLWLPRPVPLVAGAGVHLLLTFILFFWAPVPRVLQHSWILYVAAALWGVGSALNKTGLSTLLGILYEDKERQDFIFTIYHWWQAVAIFTVYLGSSLHMKAKLAVLLVTLVAAAVSYLRMEQKLRRGVAPRQPRIPRPQHKVRGYRYLEEDNSDESDAEGEHGDGAEEEAPPAGPRPGPEPAGLGRRPCPYEQAQGGDGPEEQ
binds: all assays above
